The test concerns the target T1, MIP-1α/RANTES receptor (probably CC CKR-1) on butyric acid differentiated HL-60 cells (human) (UniProt P32246).
T1 sequence (looked up): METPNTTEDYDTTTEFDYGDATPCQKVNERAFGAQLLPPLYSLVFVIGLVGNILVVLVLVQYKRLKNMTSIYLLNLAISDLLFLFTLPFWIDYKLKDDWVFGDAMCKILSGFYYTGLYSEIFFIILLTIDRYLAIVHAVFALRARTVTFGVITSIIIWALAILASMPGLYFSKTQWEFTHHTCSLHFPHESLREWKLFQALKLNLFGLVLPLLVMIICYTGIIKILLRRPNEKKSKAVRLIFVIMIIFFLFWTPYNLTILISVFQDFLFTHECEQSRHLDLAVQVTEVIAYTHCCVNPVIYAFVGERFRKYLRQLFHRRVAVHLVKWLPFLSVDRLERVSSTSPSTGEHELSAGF
As to the kind of experiment: 0.1 nM 125I-MIP-1α binding to butyric acid differentiated HL-60 cells.

The chains behind the UniProt entries cited, without tags or fusion partners. Residues count along the entry.
UniProt P10147, residues 23-92: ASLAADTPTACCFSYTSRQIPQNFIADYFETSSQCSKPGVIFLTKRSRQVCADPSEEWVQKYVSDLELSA

Results are given in words; binding and its absence hold for the method and conditions named. Some binding calls cover weakened binding; strength is not graded here.

On to “MIP-1α (from UniProt P10147 23-92) (ligand)”, for which the binding result is “binds”.

These data come from patent US7265201 (Takeda / Millennium, dated 2007).
